From paper PMC7307195
No constants are given. Whether binding was seen depends on the method and setting. In cells and extracts the contact can be indirect. Some entries that bind do so weakly or less than the wild type. Where a sequence is shown, tags or fusion partners need not be part of it.

Sequences of proteins named here, by UniProt entry; tags and fusion partners are left off.
UniProt O75925: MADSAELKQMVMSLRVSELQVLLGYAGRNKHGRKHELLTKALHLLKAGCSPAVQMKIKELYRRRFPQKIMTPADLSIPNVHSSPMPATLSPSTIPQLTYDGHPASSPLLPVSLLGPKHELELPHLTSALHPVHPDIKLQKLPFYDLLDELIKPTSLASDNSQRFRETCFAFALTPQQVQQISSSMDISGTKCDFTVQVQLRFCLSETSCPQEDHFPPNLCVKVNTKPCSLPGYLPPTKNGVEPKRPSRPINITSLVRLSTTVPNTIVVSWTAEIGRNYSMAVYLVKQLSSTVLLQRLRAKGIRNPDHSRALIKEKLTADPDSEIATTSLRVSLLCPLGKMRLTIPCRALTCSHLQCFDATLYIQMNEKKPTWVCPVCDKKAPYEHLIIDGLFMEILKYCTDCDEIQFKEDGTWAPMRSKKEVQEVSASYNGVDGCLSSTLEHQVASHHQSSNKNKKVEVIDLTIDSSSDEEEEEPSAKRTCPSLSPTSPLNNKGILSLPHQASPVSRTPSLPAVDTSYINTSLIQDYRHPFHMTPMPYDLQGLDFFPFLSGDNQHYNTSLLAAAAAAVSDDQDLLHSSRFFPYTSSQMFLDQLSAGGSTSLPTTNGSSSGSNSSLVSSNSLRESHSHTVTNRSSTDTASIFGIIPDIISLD

T1: GFP-tagged DNA polymerase η (Pol η) (human) (UniProt Q9Y253)
T1 sequence: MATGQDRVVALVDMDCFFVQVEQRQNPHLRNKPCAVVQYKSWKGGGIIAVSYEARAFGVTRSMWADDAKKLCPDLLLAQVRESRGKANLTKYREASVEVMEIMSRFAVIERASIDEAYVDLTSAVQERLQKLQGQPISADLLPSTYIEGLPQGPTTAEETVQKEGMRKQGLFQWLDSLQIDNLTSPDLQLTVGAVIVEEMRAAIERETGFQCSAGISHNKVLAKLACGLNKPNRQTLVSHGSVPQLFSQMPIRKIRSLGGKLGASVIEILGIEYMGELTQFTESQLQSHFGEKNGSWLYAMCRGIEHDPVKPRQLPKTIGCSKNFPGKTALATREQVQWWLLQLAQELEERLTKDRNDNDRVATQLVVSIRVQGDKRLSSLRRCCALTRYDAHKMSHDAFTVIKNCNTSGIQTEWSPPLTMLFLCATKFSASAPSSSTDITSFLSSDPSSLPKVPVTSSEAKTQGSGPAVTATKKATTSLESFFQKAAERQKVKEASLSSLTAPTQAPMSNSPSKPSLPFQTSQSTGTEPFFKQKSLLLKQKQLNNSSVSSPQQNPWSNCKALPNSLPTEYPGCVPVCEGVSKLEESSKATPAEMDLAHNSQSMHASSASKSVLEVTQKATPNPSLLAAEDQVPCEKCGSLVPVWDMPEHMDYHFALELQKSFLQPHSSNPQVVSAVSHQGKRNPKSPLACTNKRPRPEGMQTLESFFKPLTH

T2: GFP-tagged DNA polymerase η (Pol η) (human), Q9Y253
T2 chain: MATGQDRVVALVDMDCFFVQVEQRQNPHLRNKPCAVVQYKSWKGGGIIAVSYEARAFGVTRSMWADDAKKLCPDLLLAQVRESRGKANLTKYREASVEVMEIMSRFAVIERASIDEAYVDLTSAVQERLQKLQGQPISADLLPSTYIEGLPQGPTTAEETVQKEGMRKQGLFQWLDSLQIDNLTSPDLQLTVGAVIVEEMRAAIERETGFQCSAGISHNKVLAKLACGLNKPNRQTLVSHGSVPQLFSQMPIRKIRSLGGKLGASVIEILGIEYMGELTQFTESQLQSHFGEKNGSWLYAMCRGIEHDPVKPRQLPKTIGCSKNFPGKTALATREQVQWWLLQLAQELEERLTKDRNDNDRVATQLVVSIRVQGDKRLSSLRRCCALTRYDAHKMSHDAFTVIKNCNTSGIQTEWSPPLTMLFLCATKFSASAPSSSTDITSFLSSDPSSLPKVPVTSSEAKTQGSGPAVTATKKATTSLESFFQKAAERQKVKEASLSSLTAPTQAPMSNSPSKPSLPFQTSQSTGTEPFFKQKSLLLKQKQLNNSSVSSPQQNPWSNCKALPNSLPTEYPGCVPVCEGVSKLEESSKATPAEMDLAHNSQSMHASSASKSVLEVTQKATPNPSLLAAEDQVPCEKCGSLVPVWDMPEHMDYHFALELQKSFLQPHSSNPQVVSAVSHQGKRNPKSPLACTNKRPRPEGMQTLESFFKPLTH

B1: PIAS4, Q8N2W9 1-510 (protein)
chain: MAAELVEAKNMVMSFRVSDLQMLLGFVGRSKSGLKHELVTRALQLVQFDCSPELFKKIKELYETRYAKKNSEPAPQPHRPLDPLTMHSTYDRAGAVPRTPLAGPNIDYPVLYGKYLNGLGRLPAKTLKPEVRLVKLPFFNMLDELLKPTELVPQNNEKLQESPCIFALTPRQVELIRNSRELQPGVKAVQVVLRICYSDTSCPQEDQYPPNIAVKVNHSYCSVPGYYPSNKPGVEPKRPCRPINLTHLMYLSSATNRITVTWGNYGKSYSVALYLVRQLTSSELLQRLKTIGVKHPELCKALVKEKLRLDPDSEIATTGVRVSLICPLVKMRLSVPCRAETCAHLQCFDAVFYLQMNEKKPTWMCPVCDKPAPYDQLIIDGLLSKILSECEDADEIEYLVDGSWCPIRAEKERSCSPQGAILVLGPSDANGLLPAPSVNGSGALGSTGGGGPVGSMENGKPGADVVDLTLDSSSSSEDEEEEEEEEEDEDEEGPRPKRRCPFQKGLVPAC

Key:
[1] = biological target: T1, GFP-tagged DNA polymerase η (Pol η) (human); assay: co-IP; GFP IP (GFP-Trap agarose beads) under native conditions from lysates of U2OS/GFP-Pol η cells left untreated or exposed to UV; immunoblotting; parental U2OS cells as control
[2] = biological target: T2, GFP-tagged DNA polymerase η (Pol η) …; assay: as above; conditions: remark: other sources report otherwise

Molecule | binding [1] | binding [2]
protein inhibitor of activated STAT 1 (PIAS1) (from UniProt O75925 1-651) | binds | –
B1 | – | no binding
